The nature of the assay: qHTS Assay for Lipid Storage Modulators in Drosophila S3 Cells.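 As to cell number change: cells counted by Cell Tracker Red CMTPX staining in the red channel.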 The conditions noted are these: BODIPY lipid droplet fluorescence, 18-24 h; for cell number change: measured here: cell count max response, cells fed with added oleic acid. The essentials:
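Drosophila S3 cells got compounds at several concentrations plus oleic acid (400 uM solution). Laser-scanning cytometry with 488 nm excitation read lipid droplets at 500-530 nm and cells at 575-640 nm. Percent activity was relative to 20 uM Triacsin C.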
On the technique in general: In qHTS, concentration-response curves come from the screen itself.

[1] abbreviates: measured here: cell number channel AC50, cells fed with added oleic acid.
Setting [2] is: measured here: lipid fluorescence (Fed channel) AC50, cells fed with added oleic acid.

Structures are written as SMILES. The list shows a part of the results. Shown are side measurements of this screen, not its main read-out; they come without a call. Compounds called inactive in the main read-out are mostly missing here. Words in brackets tell the shape of the fitted curve; partial curves, single points and poor fits give uncertain potencies.

Regarding `O=C(NCCC1=CCCCC1)C1CCCN(S(=O)(=O)c2cnc[nH]2)C1` (configuration not stated), the cell number change was found to be 25%. For `CCn1c(O)c(C=Nc2ccccc2)n(-c2ccccc2)c1=S`, the cell number change amounted to 46%. Also, under setting [1], the AC50 was 7.31 µM [rising, full curve].

With `CN(C(=O)CSc1nc(-c2ccccc2)c(-c2ccccc2)o1)C1CCS(=O)(=O)C1` (configuration not stated), the cell number change was -2.2%. On to `CCC(CC)C(=O)NCCNC(=O)C(CC)CC`, for which the cell number change was 4.52%.

In the case of `Cc1ccc(C(C)(C)C)cc1S(=O)(=O)Nc1cccc(C(=O)N2CCN(c3ccccn3)CC2)c1`, the AC50 under setting [2] was 0.13 µM [falling, full curve, poor fit]. For `O=C(NNc1nc(=O)c2cccnc2s1)c1ccccc1O`, the cell number change is -57.5%. The concentration at half-maximal activity (AC50) under setting [1] was 7.31 µM [falling, partial curve]. Moreover, under setting [2], the AC50 was 10.3 µM [falling, partial curve]. As to `c1ccc(-n2nnc(-c3cccnc3)n2)cc1`, the cell number change was -10.5%. Also, under setting [2], the AC50 is 7.31 µM [falling, partial curve, poor fit]. Regarding `CCCc1nccn1S(=O)(=O)c1cc(OC)ccc1OC`, the cell number change worked out at 21%. Under setting [2], the AC50 was 6.51 µM [falling, single point]. Consider `CN1CCN(C(=O)c2ccc3ccccc3c2)CC1`, for which the cell number change is -15.2%. Moreover, under setting [2], the concentration at half-maximal activity (AC50) is 0.0058 µM [falling, full curve, poor fit]. Consider `Cc1ccc2c(CN3CCN(C(=O)c4ccco4)CC3)cc(=O)oc2c1C`, for which the cell number change was determined as 16.8%.

For the compound `COc1ccccc1NC(=O)CSc1nnc(-c2ccncc2)n1CC1CCCO1` (configuration not stated), the cell number change was -3.13%. In addition, under setting [2], the AC50 is 10.3 µM [rising, partial curve, poor fit]. Consider `O=C(NC(=O)N1CCCCCC1)c1ccccc1`, for which the cell number change is -2.02%. In addition, under setting [2], the AC50 is 25.9 µM [rising, single point].

Consider `O=C(O)CC(NC(=O)C12CC3CC(CC(C3)C1)C2)c1ccc(OC2CCCC2)cc1` (configuration not stated), for which the cell number change is -12.9%. The AC50 under setting [2] is 3.26 µM [falling, full curve, poor fit]. Consider `Cc1cc(C)nc(SCC(=O)Nc2ccc(S(=O)(=O)Nc3ncccn3)cc2)n1`, for which the cell number change was -11.7%. Also, the half-maximal activity concentration (AC50) under setting [2] is 3.26 µM [rising, partial curve].

Take `CCOC(=O)Cn1ccc(NC(=O)COc2ccc(F)cc2F)n1`: the cell number change was -13.9%. For the same compound, the AC50 under setting [2] was 23.1 µM [rising, single point]. Turning to `N/C(=N\OC(=O)CCCOc1ccccc1)c1ccncc1`, the cell number change came to 24.4%. Further, the AC50 under setting [1] was 0.0291 µM [rising, full curve, poor fit]. In addition, the AC50 under setting [2] is 0.146 µM [rising, full curve, poor fit]. For the compound `COc1cc(C2NC(=O)NC(c3ccccc3)=C2C(C)=O)c(Br)cc1OCC(N)=O` (configuration not stated), the cell number change worked out at 33%. Besides, the AC50 under setting [1] was 0.0206 µM [rising, full curve, poor fit]. Further, under setting [2], the AC50 is 29.1 µM [rising, single point]. Regarding `CCC(C)(C)NC(=O)CN(C(=O)C(=O)Nc1ccc2c(c1)OCCO2)N1CCOCC1`, the cell number change is -3.85%. In addition, the concentration at half-maximal activity (AC50) under setting [2] was 0.0206 µM [falling, full curve, poor fit].

Regarding `CC(=O)c1ccc2cccc3c2c1N=CN3C`, the cell number change is -40.9%. In addition, the AC50 under setting [1] is 7.31 µM [falling, full curve, poor fit]. Further, under setting [2], the concentration at half-maximal activity (AC50) is 32.6 µM [falling, single point].

For `Cc1cccc(C(=O)Nc2nsc(N)n2)c1`, the cell number change stood at 27.7%. Moreover, the AC50 under setting [2] was 18.4 µM [rising, single point]. `O=c1cc([O-])[n+]2c3n1CCCN3CCC2`: the cell number change is -64.4%. In addition, the half-maximal activity concentration (AC50) under setting [1] was 0.92 µM [falling, full curve, poor fit]. For the same compound, the AC50 under setting [2] is 29.1 µM [falling, single point].

As to `FC(F)(F)c1nc2ccccc2c2nc3ccccc3n12`, the cell number change was -1.61%. Moreover, the AC50 under setting [2] is 5.8 µM [rising, partial curve, poor fit].

Consider `CCOc1ccc(C(=O)NC(C(=O)N2CCC2)C(C)C)cc1` (configuration not stated), for which the cell number change came to 3.21%. As to `CC1CC(C)CN(C(=O)COC(=O)c2ccc3c(c2)C(=O)N(Cc2ccco2)C3=O)C1` (configuration not stated), the cell number change came to 0.648%.

As for `Cc1cc(C)n(-c2nc3ccccc3nc2N2CCN(S(=O)(=O)c3cccc(C#N)c3)CC2)n1`, the cell number change was 42.9%. For the same compound, the AC50 under setting [1] was 29.1 µM [rising, single point]. On to `NNC(=O)c1ccccc1OCCOc1ccccc1`, for which the cell number change was determined as 1.71%. Consider `Cc1cc(=O)oc2cc(OC(C)C(=O)Nc3ccc(N4CCCCC4)cc3)ccc12` (configuration not stated), for which the cell number change was 44.5%. For the same compound, under setting [1], the AC50 was 0.92 µM [rising, full curve]. For the same compound, the AC50 under setting [2] is 0.103 µM [rising, full curve, poor fit]. In the case of `CCC(C)(CC(=O)N(C)CCC#N)c1ccccc1` (configuration not stated), the cell number change was 13.7%. Under setting [2], the AC50 is 20.6 µM [falling, partial curve]. In the case of `CC(C)(C)c1ccccc1OCCCCN1CCCC1`, the cell number change was 16.3%. Also, the AC50 under setting [2] is 0.082 µM [falling, full curve, poor fit]. As to `CCCc1cc(=O)n2[nH]c(C(F)(F)F)nc2n1`, the cell number change was determined as 16.2%. Further, the AC50 under setting [2] is 6.51 µM [falling, single point]. Consider `CCC(=O)c1ccc(OCC(O)CN2CC(C)OC(C)C2)cc1` (configuration not stated), for which the cell number change is -0.641%. The AC50 under setting [2] is 0.82 µM [falling, full curve, poor fit].

Turning to `CCOC(=O)CSC1=N/C(=C\c2cc(OC)c(OC)c(OC)c2)C(=O)N1C`, the cell number change came to 41.1%. The half-maximal activity concentration (AC50) under setting [1] is 9.2 µM [rising, partial curve, poor fit]. Further, under setting [2], the AC50 is 7.31 µM [rising, partial curve]. For the compound `O=[N+]([O-])c1ccc(Sc2cc[n+]([O-])c3ccccc23)c([N+](=O)[O-])c1`, the cell number change worked out at 15.9%.

For `CN1C(=O)/C(=C/c2ccccc2F)Sc2ccc(C(=O)NCC3CCCO3)cc21` (configuration not stated), under setting [2], the AC50 was 6.51 µM [falling, single point]. As to `CC1CCC(C(C)C)C(OCC(O)CN2CCN(Cc3ccccc3)CC2)C1` (configuration not stated), the cell number change is -42.5%. Further, under setting [1], the concentration at half-maximal activity (AC50) is 20.6 µM [falling, single point]. Also, the AC50 under setting [2] was 18.4 µM [falling, partial curve]. Regarding `COc1ccc(NC(=O)C(NCC(C)C)c2ccccc2)cc1Cl` (configuration not stated), the half-maximal activity concentration (AC50) under setting [2] is 5.17 µM [rising, single point]. `CS(=O)(=O)N1Cc2ccccc2CC1C(=O)Nc1ccccc1C(N)=O` (configuration not stated): the cell number change was 0.69%. Also, the AC50 under setting [1] is 2.06 µM [rising, partial curve, poor fit]. Further, the AC50 under setting [2] was 4.11 µM [rising, partial curve]. For the compound `CCCOc1ccc(/C=C2\SC(=S)N(CC3CCCO3)C2=O)cc1` (configuration not stated), the cell number change was determined as 39.4%. Moreover, under setting [1], the concentration at half-maximal activity (AC50) is 29.1 µM [rising, single point]. For the compound `C=C(C)Cn1c(SCC(=O)O)nnc1-c1ccc(OC)cc1`, the cell number change is -32.9%. Besides, the AC50 under setting [1] is 0.116 µM [falling, full curve, poor fit]. The concentration at half-maximal activity (AC50) under setting [2] is 4.61 µM [falling, full curve, poor fit].

In general, AC50 refers to the concentration giving half of the maximal activity seen. Read a low AC50 as greater potency.

The record behind these values is PubChem BioAssay AID2685 (National Center for Advancing Translational Sciences (NCATS), 2010).
